The target of test [1] is T1, Bacillus subtilis FtsE (Bacillus subtilis subsp. subtilis ATCC 23857) (UniProt O34814).
T1 sequence: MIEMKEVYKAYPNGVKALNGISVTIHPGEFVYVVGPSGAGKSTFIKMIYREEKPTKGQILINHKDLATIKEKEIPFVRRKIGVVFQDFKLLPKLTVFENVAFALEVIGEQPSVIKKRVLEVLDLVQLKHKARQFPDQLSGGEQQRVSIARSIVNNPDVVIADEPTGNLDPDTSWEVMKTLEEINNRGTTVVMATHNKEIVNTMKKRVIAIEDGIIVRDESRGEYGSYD
As to the kind of experiment: SEC.

Chains of the proteins cited; added tags and fusions are not shown. Lines headed by an entry give the natural chain unless they say otherwise; changes in a name come on top.
UniProt O34876: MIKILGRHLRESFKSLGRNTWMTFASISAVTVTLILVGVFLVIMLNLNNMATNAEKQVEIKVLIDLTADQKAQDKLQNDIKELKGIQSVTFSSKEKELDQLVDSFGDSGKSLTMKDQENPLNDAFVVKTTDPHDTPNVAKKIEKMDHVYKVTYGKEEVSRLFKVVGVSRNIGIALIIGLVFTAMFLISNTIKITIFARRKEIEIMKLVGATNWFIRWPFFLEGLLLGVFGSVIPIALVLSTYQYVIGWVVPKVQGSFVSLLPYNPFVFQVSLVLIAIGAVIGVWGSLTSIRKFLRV

In test [2] the target is Streptococcus pneumoniae FtsEX complex overexpressed in E. coli (Streptococcus pneumoniae). Kind of test: styrene-maleic acid isolation and affinity purification.

These are yes or no findings as the source states them, for the method shown. Binding calls can cover weak binding; strength is not graded here.

Here are results for two molecules from paper doi:10.1101/2024.01.16.575974.

“Bacillus subtilis FtsX (from UniProt O34876)”: the binding entry in test [1] was “binds”.

B1: Escherichia coli FtsA, endogenous (protein, UniProt P0ABH0 1-420)
chain: MIKATDRKLVVGLEIGTAKVAALVGEVLPDGMVNIIGVGSCPSRGMDKGGVNDLESVVKCVQRAIDQAELMADCQISSVYLALSGKHISCQNEIGMVPISEEEVTQEDVENVVHTAKSVRVRDEHRVLHVIPQEYAIDYQEGIKNPVGLSGVRMQAKVHLITCHNDMAKNIVKAVERCGLKVDQLIFAGLASSYSVLTEDERELGVCVVDIGGGTMDIAVYTGGALRHTKVIPYAGNVVTSDIAYAFGTPPSDAEAIKVRHGCALGSIVGKDESVEVPSVGGRPPRSLQRQTLAEVIEPRYTELLNLVNEEILQLQEKLRQQGVKHHLAAGIVLTGGAAQIEGLAACAQRVFHTQVRIGAPLNITGLTDYAQEPYYSTAVGLLHYGKESHLNGEAEVEKRVTASVGSWIKRLNSWLRKEF
With B1, in test [2], the binding result is on record as “binds”.
